No constants are given. Whether binding was seen depends on the method and setting. Binding seen in cells or lysates may run through a third protein. Some results given as binding are weak or reduced against the parent protein; the word gives no strength.
What was measured:
SNAP-mGluR2(YADA) (rat) = SNAP-mGluR2(YADA) (rat) (UniProt P31421); experiment: FRET or BRET; single-molecule FRET (TIRF) between the tags of the two subunits of dimers formed in HEK293T cells, lysed in 1.2% IGEPAL, immune-purified from diluted lysate by anti-mGluR2, anti-mGluR7 or anti-HA antibody on PEG-passivated coverslips; imaging buffer pH 7.4 with 0.04% IGEPAL; traces with single-donor and single-acceptor photobleaching
[1] = target: SNAP-mGluR7 (N-terminally SNAP-tagged metabotropic glutamate receptor 7) (rat) (UniProt P35400); experiment: as above
[2] = target: SNAP-mGluR7 (N-terminally SNAP-tagged metabotropic glutamate receptor 7) (rat) (UniProt P35400); experiment: FRET or BRET; live-cell ensemble FRET between SNAP/CLIP tags of the two subunits, labelled with donor and acceptor dyes, on transfected HEK293T cells; confocal microscope, images at 1 Hz; extracellular solution pH 7.4; glutamate perfused
SNAP-mGluR7(N74K) (rat) = SNAP-mGluR7(N74K) (rat) (UniProt P35400); experiment: FRET or BRET; single-molecule FRET (TIRF) between the tags of the two subunits of dimers formed in HEK293T cells, lysed in 1.2% IGEPAL, immune-purified from diluted lysate by anti-mGluR2, anti-mGluR7 or anti-HA antibody on PEG-passivated coverslips; imaging buffer pH 7.4 with 0.04% IGEPAL; traces with single-donor and single-acceptor photobleaching
SNAP-tagged mGluR4 (rat) = SNAP-tagged mGluR4 (rat) (UniProt P31423); experiment: FRET or BRET; live-cell ensemble FRET between SNAP/CLIP tags of the two subunits, labelled with donor and acceptor dyes, on transfected HEK293T cells; confocal microscope, images at 1 Hz; extracellular solution pH 7.4; glutamate perfused
[3] = target: mGluR7 (endogenous, rat brain) (rat (endogenous in hippocampus and cortex)) (UniProt P35400); experiment: co-IP; anti-mGluR7 antibody on protein A/G magnetic beads, overnight at 4 °C, from solubilised (1.5% IGEPAL) membrane fractions of rat hippocampus or cortex; western blot

By UniProt entry, the sequences of proteins in these tests, tags left out. Where a name states a change or a piece, a line headed by the entry shows the natural chain unless it says otherwise. Chains listed by the source or under a name are the forms on record and can include a tag or linker. Residues count along the entry.
mGluR2 (endogenous, rat hippocampus) (P31421, residues 19-872): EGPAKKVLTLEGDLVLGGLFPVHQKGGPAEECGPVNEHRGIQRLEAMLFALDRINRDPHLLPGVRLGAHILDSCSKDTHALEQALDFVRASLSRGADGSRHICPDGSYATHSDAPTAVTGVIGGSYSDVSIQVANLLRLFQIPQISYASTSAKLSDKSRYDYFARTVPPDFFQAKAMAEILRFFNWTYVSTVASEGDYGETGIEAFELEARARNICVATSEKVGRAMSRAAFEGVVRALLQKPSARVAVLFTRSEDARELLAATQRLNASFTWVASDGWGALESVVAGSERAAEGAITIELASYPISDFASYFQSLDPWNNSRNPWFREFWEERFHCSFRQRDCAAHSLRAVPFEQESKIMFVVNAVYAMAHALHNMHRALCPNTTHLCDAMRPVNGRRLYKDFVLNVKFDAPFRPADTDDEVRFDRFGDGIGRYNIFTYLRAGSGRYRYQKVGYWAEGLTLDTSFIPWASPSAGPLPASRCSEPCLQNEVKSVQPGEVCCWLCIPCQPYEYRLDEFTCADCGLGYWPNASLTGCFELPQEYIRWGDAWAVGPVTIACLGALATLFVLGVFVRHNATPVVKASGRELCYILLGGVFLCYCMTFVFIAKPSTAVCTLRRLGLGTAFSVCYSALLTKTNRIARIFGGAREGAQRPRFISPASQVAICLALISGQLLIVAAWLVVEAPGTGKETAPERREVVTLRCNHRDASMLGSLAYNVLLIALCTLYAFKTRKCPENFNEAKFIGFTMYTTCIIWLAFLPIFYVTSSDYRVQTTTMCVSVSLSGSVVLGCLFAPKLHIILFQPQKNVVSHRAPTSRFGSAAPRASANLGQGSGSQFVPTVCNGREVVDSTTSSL
SNAP-mGluR2(YADA) (P31421, form named): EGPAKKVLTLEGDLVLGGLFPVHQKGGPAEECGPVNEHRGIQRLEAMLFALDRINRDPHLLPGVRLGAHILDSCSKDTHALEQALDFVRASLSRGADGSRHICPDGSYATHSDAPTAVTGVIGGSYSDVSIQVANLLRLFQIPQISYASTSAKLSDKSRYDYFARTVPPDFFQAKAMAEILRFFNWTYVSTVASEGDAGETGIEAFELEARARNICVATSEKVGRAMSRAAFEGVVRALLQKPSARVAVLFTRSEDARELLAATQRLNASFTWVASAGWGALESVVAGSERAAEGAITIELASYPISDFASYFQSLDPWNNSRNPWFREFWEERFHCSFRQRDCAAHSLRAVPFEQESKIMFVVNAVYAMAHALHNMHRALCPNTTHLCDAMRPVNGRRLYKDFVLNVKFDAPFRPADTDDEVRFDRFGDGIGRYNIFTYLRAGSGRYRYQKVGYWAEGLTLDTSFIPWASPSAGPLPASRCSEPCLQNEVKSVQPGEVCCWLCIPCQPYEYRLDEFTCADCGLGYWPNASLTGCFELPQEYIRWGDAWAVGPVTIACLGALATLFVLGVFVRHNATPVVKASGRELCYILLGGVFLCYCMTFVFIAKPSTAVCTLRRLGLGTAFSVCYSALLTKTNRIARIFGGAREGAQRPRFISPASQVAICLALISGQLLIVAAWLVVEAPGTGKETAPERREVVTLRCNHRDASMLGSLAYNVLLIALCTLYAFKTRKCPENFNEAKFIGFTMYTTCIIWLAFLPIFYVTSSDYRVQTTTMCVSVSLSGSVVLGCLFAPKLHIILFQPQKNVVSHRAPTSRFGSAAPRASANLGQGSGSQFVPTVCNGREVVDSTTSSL
SNAP-mGluR7 (N-terminally SNAP-tagged metabotropic glutamate receptor 7) (P35400, residues 35-915): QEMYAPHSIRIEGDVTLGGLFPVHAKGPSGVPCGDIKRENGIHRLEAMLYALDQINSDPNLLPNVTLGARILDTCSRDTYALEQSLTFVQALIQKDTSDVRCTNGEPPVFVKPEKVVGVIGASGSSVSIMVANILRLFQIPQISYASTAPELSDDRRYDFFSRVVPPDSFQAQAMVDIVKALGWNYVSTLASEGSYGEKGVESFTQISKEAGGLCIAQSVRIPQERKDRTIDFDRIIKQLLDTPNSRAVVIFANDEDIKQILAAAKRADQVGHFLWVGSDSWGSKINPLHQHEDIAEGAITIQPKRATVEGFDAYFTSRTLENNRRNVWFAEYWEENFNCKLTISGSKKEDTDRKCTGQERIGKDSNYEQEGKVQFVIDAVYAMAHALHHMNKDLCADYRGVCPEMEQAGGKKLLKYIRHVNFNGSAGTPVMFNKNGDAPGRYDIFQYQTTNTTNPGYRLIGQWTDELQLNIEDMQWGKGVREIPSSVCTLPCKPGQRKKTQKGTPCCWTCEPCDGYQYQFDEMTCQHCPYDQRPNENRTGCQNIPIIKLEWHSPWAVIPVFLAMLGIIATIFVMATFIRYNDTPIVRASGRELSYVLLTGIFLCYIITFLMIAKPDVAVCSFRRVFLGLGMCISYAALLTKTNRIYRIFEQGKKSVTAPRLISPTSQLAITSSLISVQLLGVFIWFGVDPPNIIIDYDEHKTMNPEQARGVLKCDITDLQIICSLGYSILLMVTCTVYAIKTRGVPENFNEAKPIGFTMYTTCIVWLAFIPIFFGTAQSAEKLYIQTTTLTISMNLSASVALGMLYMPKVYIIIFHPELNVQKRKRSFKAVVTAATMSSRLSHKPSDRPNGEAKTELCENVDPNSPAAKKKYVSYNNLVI
SNAP-mGluR7(N74K) (P35400, form named): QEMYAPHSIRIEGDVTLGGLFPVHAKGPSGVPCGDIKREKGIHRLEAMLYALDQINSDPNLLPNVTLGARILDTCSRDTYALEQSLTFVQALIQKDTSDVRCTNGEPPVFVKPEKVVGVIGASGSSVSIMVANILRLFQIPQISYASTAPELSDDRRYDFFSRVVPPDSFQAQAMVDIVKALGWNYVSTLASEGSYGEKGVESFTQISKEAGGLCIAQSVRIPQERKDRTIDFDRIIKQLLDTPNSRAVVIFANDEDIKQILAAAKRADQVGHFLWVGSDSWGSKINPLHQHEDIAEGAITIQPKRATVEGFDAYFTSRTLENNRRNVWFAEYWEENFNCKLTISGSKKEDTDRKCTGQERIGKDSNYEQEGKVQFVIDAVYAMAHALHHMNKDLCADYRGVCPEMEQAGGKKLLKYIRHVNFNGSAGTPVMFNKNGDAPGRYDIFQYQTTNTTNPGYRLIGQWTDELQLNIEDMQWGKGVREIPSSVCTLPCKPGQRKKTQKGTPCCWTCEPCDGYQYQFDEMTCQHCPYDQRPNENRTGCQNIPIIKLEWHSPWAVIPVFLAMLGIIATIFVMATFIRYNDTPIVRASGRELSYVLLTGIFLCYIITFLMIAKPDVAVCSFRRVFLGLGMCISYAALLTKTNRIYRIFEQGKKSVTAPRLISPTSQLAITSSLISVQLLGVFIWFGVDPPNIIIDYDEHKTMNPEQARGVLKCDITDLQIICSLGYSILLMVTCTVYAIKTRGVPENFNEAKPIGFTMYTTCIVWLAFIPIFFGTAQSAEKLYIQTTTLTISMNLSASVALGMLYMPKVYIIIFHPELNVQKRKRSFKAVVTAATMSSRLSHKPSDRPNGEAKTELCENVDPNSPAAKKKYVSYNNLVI
UniProt P31423, residues 33-912: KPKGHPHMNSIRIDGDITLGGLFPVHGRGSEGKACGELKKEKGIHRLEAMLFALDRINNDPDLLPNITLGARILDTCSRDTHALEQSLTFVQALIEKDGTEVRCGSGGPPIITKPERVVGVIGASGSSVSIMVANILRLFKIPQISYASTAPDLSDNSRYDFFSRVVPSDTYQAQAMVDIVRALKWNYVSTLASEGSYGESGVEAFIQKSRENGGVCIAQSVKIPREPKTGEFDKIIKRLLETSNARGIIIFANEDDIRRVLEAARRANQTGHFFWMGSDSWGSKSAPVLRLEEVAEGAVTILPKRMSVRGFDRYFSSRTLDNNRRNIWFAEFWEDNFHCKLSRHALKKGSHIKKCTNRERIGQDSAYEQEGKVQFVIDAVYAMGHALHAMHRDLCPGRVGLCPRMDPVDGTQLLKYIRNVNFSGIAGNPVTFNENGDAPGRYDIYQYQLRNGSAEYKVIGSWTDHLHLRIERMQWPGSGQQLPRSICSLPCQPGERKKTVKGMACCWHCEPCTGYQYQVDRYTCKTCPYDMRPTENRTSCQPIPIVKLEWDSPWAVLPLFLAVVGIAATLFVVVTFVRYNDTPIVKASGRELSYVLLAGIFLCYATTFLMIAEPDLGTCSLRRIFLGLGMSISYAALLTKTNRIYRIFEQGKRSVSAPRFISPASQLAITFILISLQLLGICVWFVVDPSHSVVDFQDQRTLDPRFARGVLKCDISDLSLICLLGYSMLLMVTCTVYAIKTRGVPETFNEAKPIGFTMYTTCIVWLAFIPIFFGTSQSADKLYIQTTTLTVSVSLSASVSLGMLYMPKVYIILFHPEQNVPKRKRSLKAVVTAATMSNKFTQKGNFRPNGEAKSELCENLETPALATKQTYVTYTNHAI
UniProt P31422, residues 23-879: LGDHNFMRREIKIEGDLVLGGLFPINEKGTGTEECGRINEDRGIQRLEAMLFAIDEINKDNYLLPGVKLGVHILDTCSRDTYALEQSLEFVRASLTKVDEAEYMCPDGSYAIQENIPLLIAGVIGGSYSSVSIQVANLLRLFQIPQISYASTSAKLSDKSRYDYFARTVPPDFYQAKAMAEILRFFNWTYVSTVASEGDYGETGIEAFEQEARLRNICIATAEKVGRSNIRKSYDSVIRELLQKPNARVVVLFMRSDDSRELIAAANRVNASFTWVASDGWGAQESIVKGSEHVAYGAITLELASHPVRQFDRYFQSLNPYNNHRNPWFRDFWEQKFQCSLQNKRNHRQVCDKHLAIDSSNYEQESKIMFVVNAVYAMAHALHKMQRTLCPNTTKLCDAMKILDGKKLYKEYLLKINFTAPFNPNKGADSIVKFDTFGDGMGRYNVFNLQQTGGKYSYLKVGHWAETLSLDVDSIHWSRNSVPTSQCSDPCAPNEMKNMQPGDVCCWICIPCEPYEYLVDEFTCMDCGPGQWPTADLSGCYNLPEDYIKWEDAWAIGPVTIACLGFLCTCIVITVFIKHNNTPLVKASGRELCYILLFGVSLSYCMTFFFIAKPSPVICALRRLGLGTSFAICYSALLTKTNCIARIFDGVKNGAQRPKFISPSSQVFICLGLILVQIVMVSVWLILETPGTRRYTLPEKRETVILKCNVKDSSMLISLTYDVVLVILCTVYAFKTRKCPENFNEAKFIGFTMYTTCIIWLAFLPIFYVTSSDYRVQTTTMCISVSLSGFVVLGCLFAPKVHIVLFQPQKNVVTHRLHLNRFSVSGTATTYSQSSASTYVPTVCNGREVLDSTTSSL

Question: For “CLIP-mGluR2 (from UniProt P31421 19-872) (receptor)”, which binding (SNAP-mGluR2(YADA) (rat)) is on record?
Answer: binds

Question: And the binding [1]?
Answer: binds

Question: And the binding [2]?
Answer: binds

Question: What does the source list for “SNAP-mGluR7 (N-terminally SNAP-tagged metabotropic glutamate receptor 7) (from UniProt P35400 35-915)”?
Answer: binding [1]: binds; binding [2]: binds

Question: “SNAP-mGluR7(N74K) (from UniProt P35400 35-915) (receptor)” was tested. Which binding (SNAP-mGluR7(N74K) (rat)) did it give?
Answer: binds

Question: For “SNAP-tagged mGluR4 (from UniProt P31423 33-912) (receptor)”, which binding (SNAP-tagged mGluR4 (rat)) is on record?
Answer: binds

Question: “mGluR2 (endogenous, rat hippocampus) (from UniProt P31421 19-872) (receptor)” was tested. Which binding [3] did it give?
Answer: binds

Question: For “mGluR3 (endogenous, rat cortex) (from UniProt P31422 23-879) (receptor)”, which binding [3] is on record?
Answer: binds

Question: Which binding [1] does the source give for “mGluR3 subunit of the mGluR3/7 heterodimer (tagged for smFRET) (from UniProt P31422 23-879) (receptor)” here?
Answer: binds

— article PMC6895203, “Conformational pathway provides unique sensitivity to a synaptic mGluR” (Nature Communications, 2019)
